# Measurements reported in the supplement of paper PMC4604168 (melanoma cell lines).
# The list shows a part of the results. Single values are uncertain, as repeats are few or missing.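 Imaging used 1,536-well plates; nuclei positive for cleaved PARP by antibody were divided by total DNA-stained nuclei to yield the apoptosis fraction. Doses for screening kept most cells viable, and cell lines differ markedly in resting and induced cleaved-PARP levels.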
# What was measured:
# Experiment in all cases: cleaved PARP positive nuclei fraction relative to DMSO control; melanoma cells; higher = more apoptosis
# Conditions in all cases: library dose: low library concentration; 72 h
# 501Mel = test system: 501Mel
# A101D = test system: A101D
# A2058 = test system: A2058
# A375 = test system: A375
# C32 = test system: C32
# CBRC008 = test system: CBRC008 (line from a melanoma biopsy)
# CBRC014 = test system: CBRC014 (line from a melanoma biopsy)
# CBRC016 = test system: CBRC016 (line from a melanoma biopsy)
# CBRC017 = test system: CBRC017 (line from a melanoma biopsy)
# CBRC034 = test system: CBRC034 (line from a melanoma biopsy)
# COLO792 = test system: COLO792
# COLO800 = test system: COLO800
# COLO829 = test system: COLO829
# G361 = test system: G361
# IPC-298 = test system: IPC-298
# IST-MEL1 = test system: IST-MEL1
# LB2518-MEL = test system: LB2518-MEL
# LOXIMVI = test system: LOXIMVI
# MEL-HO = test system: MEL-HO
SMILES,cleaved PARP positive nuclei fraction (501Mel) [%],cleaved PARP positive nuclei fraction (A101D) [%],cleaved PARP positive nuclei fraction (A2058) [%],cleaved PARP positive nuclei fraction (A375) [%],cleaved PARP positive nuclei fraction (C32) [%],cleaved PARP positive nuclei fraction (CBRC008) [%],cleaved PARP positive nuclei fraction (CBRC014) [%],cleaved PARP positive nuclei fraction (CBRC016) [%],cleaved PARP positive nuclei fraction (CBRC017) [%],cleaved PARP positive nuclei fraction (CBRC034) [%],cleaved PARP positive nuclei fraction (COLO792) [%],cleaved PARP positive nuclei fraction (COLO800) [%],cleaved PARP positive nuclei fraction (COLO829) [%],cleaved PARP positive nuclei fraction (G361) [%],cleaved PARP positive nuclei fraction (IPC-298) [%],cleaved PARP positive nuclei fraction (IST-MEL1) [%],cleaved PARP positive nuclei fraction (LB2518-MEL) [%],cleaved PARP positive nuclei fraction (LOXIMVI) [%],cleaved PARP positive nuclei fraction (MEL-HO) [%]
"CO[C@H]1C[C@@H]2CC[C@@H](C)[C@@](O)(O2)C(=O)C(=O)N2CCCC[C@H]2C(=O)O[C@H]([C@H](C)C[C@@H]2CC[C@@H](OCCO)[C@H](OC)C2)CC(=O)[C@H](C)/C=C(\C)[C@@H](O)[C@@H](OC)C(=O)[C@H](C)C[C@H](C)/C=C/C=C/C=C/1C [everolimus] + OCc1c[nH]c2ccccc12 [Indole-3-carbinol] (first compound 0.02 µM, partner dose 0.8 µM)",353,233,67.9,776,80.3,74.2,99.2,171,110,49.4,187,121,96.4,81,166,192,149,217,82.3
"CN1CCN(c2ccc3nc(-c4c(N)c5c(F)cccc5[nH]c4=O)[nH]c3c2)CC1 [Dovitinib] + CS(=O)(=O)CCNCc1ccc(-c2ccc3ncnc(Nc4ccc(OCc5cccc(F)c5)c(Cl)c4)c3c2)o1 [lapatinib] (first compound 0.1 µM, partner dose 0.8 µM)",65.7,152,328,89.3,157,76.6,103,68.8,94.3,274,100,160,59.6,93.5,44.2,44.8,107,154,121
"CN1CCN(c2ccc3nc(-c4c(N)c5c(F)cccc5[nH]c4=O)[nH]c3c2)CC1 [Dovitinib] + C#Cc1cccc(Nc2ncnc3cc(OCCOC)c(OCCOC)cc23)c1 [erlotinib] (first compound 0.1 µM, partner dose 0.8 µM)",76.5,91.9,128,95.6,69.4,177,89.8,81.1,135,135,79,144,95,127,42.1,64.1,119,168,161
"CN1CCN(c2ccc3nc(-c4c(N)c5c(F)cccc5[nH]c4=O)[nH]c3c2)CC1 [Dovitinib] + COc1ccc(Cl)c(Nc2nc3ccccc3nc2NS(=O)(=O)c2cccc(NC(=O)C(C)(C)N)c2)c1 [XL147] (first compound 0.1 µM, partner dose 0.8 µM)",81,175,154,224,83.6,304,98.6,63.6,121,101,46.6,171,26.5,107,91.3,98.6,57,170,81.1
"O=C(O)c1ccc2c(c1)nc(Nc1cccc(Cl)c1)c1ccncc12 + Cc1nc(Nc2ncc(C(=O)Nc3c(C)cccc3Cl)s2)cc(N2CCN(CCO)CC2)n1 [dasatanib] (first compound 0.4 µM, partner dose 0.004 µM)",222,465,331,185,103,85.6,180,210,187,183,193,100,76.2,126,163,71.3,149,103,34
"O=C(O)[C@@H]1[O][Sb](=[O])([O][Sb]2(=[O])[O][C@H]([C@H](O)CO)[C@H](O)[C@H](C(=O)O)[O]2)[O][C@H]([C@H](O)CO)[C@@H]1O (stereo partly drawn) [stibogluconate] + Cc1nc(Nc2ncc(C(=O)Nc3c(C)cccc3Cl)s2)cc(N2CCN(CCO)CC2)n1 [dasatanib] (first compound 2 µM, partner dose 0.004 µM)",206,63.4,150,188,84,44.6,112,79.3,138,240,156,193,65.6,122,44.1,94.3,122,345,153
"C[C@@H](Oc1cc(-c2cnn(C3CCNCC3)c2)cnc1N)c1c(Cl)ccc(F)c1Cl [Crizotinib] + COc1ccc(Cl)c(Nc2nc3ccccc3nc2NS(=O)(=O)c2cccc(NC(=O)C(C)(C)N)c2)c1 [XL147] (first compound 0.2 µM, partner dose 0.8 µM)",52.4,136,153,90.9,85,344,142,208,174,178,91.5,86.9,96.5,129,61.5,137,106,343,56.1
"CN1CCN(c2ccc3nc(-c4c(N)c5c(F)cccc5[nH]c4=O)[nH]c3c2)CC1 [Dovitinib] + CCCS(=O)(=O)Nc1ccc(F)c(C(=O)c2c[nH]c3ncc(Cl)cc23)c1F [PLX4720] (first compound 0.1 µM, partner dose 0.08 µM)",59.9,104,119,360,150,110,101,85.9,117,47.6,106,67.9,50.2,59.9,66,70.1,113,24.3,70.6
"Nc1nc(F)nc2c1ncn2[C@@H]1O[C@H](CO)[C@@H](O)[C@@H]1O [fludarabine] + COc1ccc(Cl)c(Nc2nc3ccccc3nc2NS(=O)(=O)c2cccc(NC(=O)C(C)(C)N)c2)c1 [XL147] (first compound 0.2 µM, partner dose 0.8 µM)",12800,55.2,166,5470,71.6,97.3,113,166,111,46.1,51.6,78.6,109,52.6,91.8,229,25.8,97.8,36.5
"O=C(O)[C@@H]1[O][Sb](=[O])([O][Sb]2(=[O])[O][C@H]([C@H](O)CO)[C@H](O)[C@H](C(=O)O)[O]2)[O][C@H]([C@H](O)CO)[C@@H]1O (stereo partly drawn) [stibogluconate] + CS(=O)(=O)CCNCc1ccc(-c2ccc3ncnc(Nc4ccc(OCc5cccc(F)c5)c(Cl)c4)c3c2)o1 [lapatinib] (first compound 2 µM, partner dose 0.8 µM)",77,63.8,111,119,68.5,107,104,28.8,90.1,110,137,58.1,35.7,132,44.1,114,102,131,157
"CS(=O)(=O)CCNCc1ccc(-c2ccc3ncnc(Nc4ccc(OCc5cccc(F)c5)c(Cl)c4)c3c2)o1 [lapatinib] + C#Cc1cccc(Nc2ncnc3cc(OCCOC)c(OCCOC)cc23)c1 [erlotinib] (first compound 0.8 µM, partner dose 0.8 µM)",173,447,30.1,52,85.9,248,90.7,60,117,72.5,113,138,124,77.3,97.9,66.3,117,103,116
"CNC(=O)c1cc(Oc2ccc(NC(=O)Nc3ccc(Cl)c(C(F)(F)F)c3)cc2)ccn1 [sorafenib] + Cn1nnc2c(C(N)=O)ncn2c1=O [temozolomide] (first compound 0.4 µM, partner dose 2 µM)",176,42.5,71.3,21.3,76.9,90.8,87.1,84.7,115,130,148,103,94.7,71,134,164,103,142,131
"Nc1ccn([C@@H]2O[C@H](CO)[C@@H](O)C2(F)F)c(=O)n1 [gemcitabine] + Clc1ccc(Nc2nnc(Cc3ccncc3)c3ccccc23)cc1 [vatalanib] (first compound 0.0004 µM, partner dose 2 µM)",61,59.8,245,66.5,86.1,61.7,181,143,127,47.5,197,131,138,183,59.7,220,368,65.6,159
"Cn1c(=O)n(-c2ccc(C(C)(C)C#N)cc2)c2c3cc(-c4cnc5ccccc5c4)ccc3ncc21 + OCc1c[nH]c2ccccc12 [Indole-3-carbinol] (first compound 0.004 µM, partner dose 0.8 µM)",123,115,73.8,219,312,87.4,97.7,143,109,86.8,82,186,67.6,129,248,153,58.1,99.9,142
"CCCS(=O)(=O)Nc1ccc(F)c(C(=O)c2c[nH]c3ncc(Cl)cc23)c1F + Nc1cccc2c1CN(C1CCC(=O)NC1=O)C2=O [lenalidomide] (first compound 0.08 µM, partner dose 1 µM)",92.5,94,98.1,242,77,66.8,111,167,113,21.9,83.9,43.6,53.9,28.6,181,295,101,59.7,122
"Nc1nc(F)nc2c1ncn2[C@@H]1O[C@H](CO)[C@@H](O)[C@@H]1O [fludarabine] + Cc1nc(Nc2ncc(C(=O)Nc3c(C)cccc3Cl)s2)cc(N2CCN(CCO)CC2)n1 [dasatanib] (first compound 0.2 µM, partner dose 0.004 µM)",9830,279,246,2990,91,99.2,118,47.7,106,145,153,146,174,47.5,141,279,58.5,248,53
"CCCS(=O)(=O)Nc1ccc(F)c(C(=O)c2c[nH]c3ncc(Cl)cc23)c1F + Cc1nc(Nc2ncc(C(=O)Nc3c(C)cccc3Cl)s2)cc(N2CCN(CCO)CC2)n1 [dasatanib] (first compound 0.08 µM, partner dose 0.004 µM)",69.3,52,196,293,78.3,172,137,109,119,128,135,70.3,109,246,106,97.8,122,128,159

# In another format: entries from further up
SMILES	cleaved PARP positive nuclei fraction (501Mel) [%]	cleaved PARP positive nuclei fraction (A101D) [%]	cleaved PARP positive nuclei fraction (A2058) [%]	cleaved PARP positive nuclei fraction (A375) [%]	cleaved PARP positive nuclei fraction (C32) [%]	cleaved PARP positive nuclei fraction (CBRC008) [%]	cleaved PARP positive nuclei fraction (CBRC014) [%]	cleaved PARP positive nuclei fraction (CBRC016) [%]	cleaved PARP positive nuclei fraction (CBRC017) [%]	cleaved PARP positive nuclei fraction (CBRC034) [%]	cleaved PARP positive nuclei fraction (COLO792) [%]	cleaved PARP positive nuclei fraction (COLO800) [%]	cleaved PARP positive nuclei fraction (COLO829) [%]	cleaved PARP positive nuclei fraction (G361) [%]	cleaved PARP positive nuclei fraction (IPC-298) [%]	cleaved PARP positive nuclei fraction (IST-MEL1) [%]	cleaved PARP positive nuclei fraction (LB2518-MEL) [%]	cleaved PARP positive nuclei fraction (LOXIMVI) [%]	cleaved PARP positive nuclei fraction (MEL-HO) [%]
CN1CCN(c2ccc3nc(-c4c(N)c5c(F)cccc5[nH]c4=O)[nH]c3c2)CC1 [Dovitinib] + C#Cc1cccc(Nc2ncnc3cc(OCCOC)c(OCCOC)cc23)c1 [erlotinib] (first compound 0.1 µM, partner dose 0.8 µM)	76.5	91.9	128	95.6	69.4	177	89.8	81.1	135	135	79	144	95	127	42.1	64.1	119	168	161
CN1CCN(c2ccc3nc(-c4c(N)c5c(F)cccc5[nH]c4=O)[nH]c3c2)CC1 [Dovitinib] + COc1ccc(Cl)c(Nc2nc3ccccc3nc2NS(=O)(=O)c2cccc(NC(=O)C(C)(C)N)c2)c1 [XL147] (first compound 0.1 µM, partner dose 0.8 µM)	81	175	154	224	83.6	304	98.6	63.6	121	101	46.6	171	26.5	107	91.3	98.6	57	170	81.1
O=C(O)c1ccc2c(c1)nc(Nc1cccc(Cl)c1)c1ccncc12 + Cc1nc(Nc2ncc(C(=O)Nc3c(C)cccc3Cl)s2)cc(N2CCN(CCO)CC2)n1 [dasatanib] (first compound 0.4 µM, partner dose 0.004 µM)	222	465	331	185	103	85.6	180	210	187	183	193	100	76.2	126	163	71.3	149	103	34
O=C(O)[C@@H]1[O][Sb](=[O])([O][Sb]2(=[O])[O][C@H]([C@H](O)CO)[C@H](O)[C@H](C(=O)O)[O]2)[O][C@H]([C@H](O)CO)[C@@H]1O (stereo partly drawn) [stibogluconate] + Cc1nc(Nc2ncc(C(=O)Nc3c(C)cccc3Cl)s2)cc(N2CCN(CCO)CC2)n1 [dasatanib] (first compound 2 µM, partner dose 0.004 µM)	206	63.4	150	188	84	44.6	112	79.3	138	240	156	193	65.6	122	44.1	94.3	122	345	153
